Laboratory results from publication doi:10.1101/2019.12.21.885863.
No constants are given. Whether binding was seen depends on the method and setting. For part of these data: In cells and extracts the contact can be indirect. Some binding calls cover weakened binding; strength is not graded here. Sequences can lack the tags named with a protein.

Legend:
[1] = target: T1, GAL4BD-SMXL5 fusion protein (Arabidopsis thaliana) (UniProt Q9LU73); experiment: two-hybrid
T1 sequence: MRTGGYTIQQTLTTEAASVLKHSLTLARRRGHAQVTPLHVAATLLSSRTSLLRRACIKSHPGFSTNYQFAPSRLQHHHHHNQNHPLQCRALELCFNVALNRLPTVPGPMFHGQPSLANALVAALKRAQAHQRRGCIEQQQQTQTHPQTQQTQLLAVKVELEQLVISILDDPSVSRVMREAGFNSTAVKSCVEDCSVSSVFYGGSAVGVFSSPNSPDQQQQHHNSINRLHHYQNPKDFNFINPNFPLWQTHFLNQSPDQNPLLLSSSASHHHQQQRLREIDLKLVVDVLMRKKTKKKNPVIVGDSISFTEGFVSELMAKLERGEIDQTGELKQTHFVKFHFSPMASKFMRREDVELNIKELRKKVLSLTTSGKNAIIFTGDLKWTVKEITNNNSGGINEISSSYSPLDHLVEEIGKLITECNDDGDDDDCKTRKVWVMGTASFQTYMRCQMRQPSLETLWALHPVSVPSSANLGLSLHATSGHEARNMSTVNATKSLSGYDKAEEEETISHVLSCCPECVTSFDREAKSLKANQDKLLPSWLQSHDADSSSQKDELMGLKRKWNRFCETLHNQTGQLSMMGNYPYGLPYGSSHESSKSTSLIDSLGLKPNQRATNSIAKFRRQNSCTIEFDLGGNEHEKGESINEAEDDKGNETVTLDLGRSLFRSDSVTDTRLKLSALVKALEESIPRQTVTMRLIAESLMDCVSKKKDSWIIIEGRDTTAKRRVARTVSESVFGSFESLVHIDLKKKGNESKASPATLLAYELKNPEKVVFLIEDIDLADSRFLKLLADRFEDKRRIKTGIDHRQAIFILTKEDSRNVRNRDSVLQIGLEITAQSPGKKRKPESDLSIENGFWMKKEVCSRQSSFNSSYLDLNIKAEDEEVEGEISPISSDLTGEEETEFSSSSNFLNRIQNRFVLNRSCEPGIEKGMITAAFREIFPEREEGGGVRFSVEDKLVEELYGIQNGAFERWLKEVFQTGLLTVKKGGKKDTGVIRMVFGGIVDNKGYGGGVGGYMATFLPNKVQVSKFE

[2] = target: T2, SMXL5-3xHA (Arabidopsis thaliana) (UniProt Q9LU73); experiment: co-IP
T2 sequence: T1 sequence

[3] = target: T3, SMXL5-mCherry (Arabidopsis thaliana) (UniProt Q9LU73); experiment: FRET or BRET
T3 sequence: T1 sequence

B1: GAL4AD-OBE3 fusion protein (protein, UniProt Q94B71 1-733)
chain: MIGEKDLAGDGECSRTKTSKPRFSNLNNQTHQDDKTGQYHQKGVDFLNVRSNNLDGGFSSKSSPRSGNELTLSYLCENSGKLAESLGQKGKEVVTFSENSSYDDKWVERDFFNLREMNPNSSKRKAHEEEEEAEEEEDKKSNKIETLNLSLALPDVSLSLTASNAVKRPRVVTSERTTTSFSNDFTATAPSMSYSYSHPFSHNISCSMTRNSTDFDCSVGKDDHIWCAGEGTNGSVHSRFRPIGDGGVALANNPVSGKPSSSADYSFFPSELPARPGNEVTISGDSRKKVANLEDNDAVRSERVLYDIVSKSISSVALIIQGMADETLESAKEYLRNLIDSPEKKEKLVNLQNQIDKRSDLSKETLSKCVKDQLDILVAVRTGLKYFLSGKIRIPMNELVEIFLFLRCRNVNCKSLLPVDDCECKICSNNKGFCSSCMCPVCLRFDSASNTCSWVGCDVCSHWCHAACGIQKNLIKPGHSLKGQRGTTEMMFHCIGCAHKSEMFGFVKDVFVCCAKNWGLETLIKELDCVRKVFRGSDDAKGKALHLKANEMVKKLESKQISPLDASNFIIQFFNYAESIPEIPDPPRELTVAAETSYRKDEASVTPSTSKDQKKKSFALTDAMMNSFDSLESMVRIKEAETRMFQKKADEARIEAESFKRMIEMKTEKMEEEYTEKLARLCLQETEERRRNKLEELKKLENSHCDYRNMKLRMEAEIAGLLKRMEVTRQQLV
[1]
  binding: binds

B2: 6xMyc-OBE3 (protein, UniProt Q94B71 1-733)
chain: B1 chain
[2]
  binding: binds

B3: OBE3-mGFP (protein, UniProt Q94B71 1-733)
chain: B1 chain
[3]
  binding: binds
